This is one part of the list. Residues, ends and D or L forms follow the SMILES beside them. *: point of attachment. Cbz = O=C(OCc1ccccc1)*
Columns and labels:
Assay in all cases: log2 fold change, soluble protein after heating vs DMSO (PISA); higher = thermal stabilisation; K562 cells, 10 uM, 30 min; active = over 0.2 and 3.5 SD of the protein, either way, in both replicates (recomputed)
erlotinib = compound: C#Cc1cccc(Nc2ncnc3cc(OCCOC)c(OCCOC)cc23)c1 [erlotinib]
Method in brief: (§1)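 K562 cells at 2×10^6 cells/mL were exposed to 10 μM compound for 30 min, then aliquots were heated for 3 min across 48°C-58°C, pooled, and extracted in PBS containing 0.5% NP-40 at 4°C. The supernatant after 21,000xg for 90 min was taken as soluble protein and measured by TMTpro 16plex LC-MS/MS with channel sums equalised. Thermal stability is reported relative to control samples, with values from duplicates. Fold changes are given on a log2 scale.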

Protein sequences, listed by entry. Tags and fused reporters are not part of them. Lines headed by an entry give the natural chain unless they say otherwise; changes in a name come on top.
UniProt Q99643: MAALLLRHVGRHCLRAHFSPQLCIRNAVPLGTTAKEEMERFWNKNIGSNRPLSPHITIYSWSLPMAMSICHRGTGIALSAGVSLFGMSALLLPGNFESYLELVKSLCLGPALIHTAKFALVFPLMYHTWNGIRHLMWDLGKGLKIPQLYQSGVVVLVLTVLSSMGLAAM
UniProt O94979: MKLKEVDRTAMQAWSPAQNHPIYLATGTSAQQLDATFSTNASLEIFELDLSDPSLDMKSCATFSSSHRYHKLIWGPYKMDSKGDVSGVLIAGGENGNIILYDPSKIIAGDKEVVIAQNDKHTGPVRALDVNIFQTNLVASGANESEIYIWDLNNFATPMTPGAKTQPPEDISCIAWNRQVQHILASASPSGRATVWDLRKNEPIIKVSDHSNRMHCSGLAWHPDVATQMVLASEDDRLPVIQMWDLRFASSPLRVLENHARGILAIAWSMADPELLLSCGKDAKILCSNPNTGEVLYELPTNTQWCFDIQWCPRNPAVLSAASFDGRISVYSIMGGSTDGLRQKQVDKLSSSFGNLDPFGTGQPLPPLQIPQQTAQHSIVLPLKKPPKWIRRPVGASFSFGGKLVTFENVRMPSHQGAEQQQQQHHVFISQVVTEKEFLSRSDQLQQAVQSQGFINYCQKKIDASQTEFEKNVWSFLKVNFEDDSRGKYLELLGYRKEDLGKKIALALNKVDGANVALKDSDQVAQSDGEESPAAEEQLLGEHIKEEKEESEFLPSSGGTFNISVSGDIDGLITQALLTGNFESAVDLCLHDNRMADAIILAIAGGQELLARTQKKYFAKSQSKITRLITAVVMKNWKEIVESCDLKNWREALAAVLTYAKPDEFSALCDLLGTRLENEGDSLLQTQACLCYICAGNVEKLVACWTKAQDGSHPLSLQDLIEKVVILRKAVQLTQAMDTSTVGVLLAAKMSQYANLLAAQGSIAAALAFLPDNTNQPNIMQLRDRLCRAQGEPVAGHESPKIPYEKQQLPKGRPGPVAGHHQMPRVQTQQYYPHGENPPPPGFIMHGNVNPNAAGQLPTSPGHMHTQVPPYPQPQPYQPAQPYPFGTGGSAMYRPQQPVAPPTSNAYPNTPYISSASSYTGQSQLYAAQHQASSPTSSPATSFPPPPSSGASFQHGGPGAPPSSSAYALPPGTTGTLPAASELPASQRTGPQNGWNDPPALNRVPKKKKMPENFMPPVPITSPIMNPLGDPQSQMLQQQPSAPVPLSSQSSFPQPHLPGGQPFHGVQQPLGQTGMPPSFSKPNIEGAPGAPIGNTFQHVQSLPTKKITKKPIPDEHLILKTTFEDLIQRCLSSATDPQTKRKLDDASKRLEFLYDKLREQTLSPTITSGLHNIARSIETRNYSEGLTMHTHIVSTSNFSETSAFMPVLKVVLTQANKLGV
UniProt Q9Y6Y8: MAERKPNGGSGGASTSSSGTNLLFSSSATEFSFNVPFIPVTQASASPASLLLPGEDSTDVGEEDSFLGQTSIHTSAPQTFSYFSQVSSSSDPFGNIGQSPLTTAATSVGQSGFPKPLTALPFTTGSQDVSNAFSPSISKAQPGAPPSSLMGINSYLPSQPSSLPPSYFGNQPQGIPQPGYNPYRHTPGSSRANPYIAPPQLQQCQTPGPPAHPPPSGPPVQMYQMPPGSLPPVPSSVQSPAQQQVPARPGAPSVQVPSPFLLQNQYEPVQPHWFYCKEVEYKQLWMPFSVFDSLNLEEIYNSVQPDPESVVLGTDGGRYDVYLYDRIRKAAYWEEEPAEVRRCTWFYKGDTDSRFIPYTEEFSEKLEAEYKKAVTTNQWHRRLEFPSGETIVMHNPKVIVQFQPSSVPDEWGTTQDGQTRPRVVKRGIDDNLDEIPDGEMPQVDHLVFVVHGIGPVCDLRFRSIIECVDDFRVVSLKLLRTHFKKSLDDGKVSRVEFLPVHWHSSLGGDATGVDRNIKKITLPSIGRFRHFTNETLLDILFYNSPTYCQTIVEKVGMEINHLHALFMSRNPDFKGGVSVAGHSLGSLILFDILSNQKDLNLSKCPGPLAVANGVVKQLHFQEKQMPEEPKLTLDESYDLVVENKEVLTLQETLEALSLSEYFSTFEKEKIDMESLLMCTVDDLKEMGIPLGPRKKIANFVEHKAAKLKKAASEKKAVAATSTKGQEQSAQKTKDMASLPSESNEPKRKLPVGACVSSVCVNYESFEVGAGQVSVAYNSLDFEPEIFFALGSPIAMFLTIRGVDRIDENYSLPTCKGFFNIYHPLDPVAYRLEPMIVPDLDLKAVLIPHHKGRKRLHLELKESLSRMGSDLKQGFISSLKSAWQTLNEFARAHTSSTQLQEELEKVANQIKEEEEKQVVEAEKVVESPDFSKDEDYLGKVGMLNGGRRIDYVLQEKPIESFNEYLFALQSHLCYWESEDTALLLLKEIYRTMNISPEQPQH
UniProt P21912: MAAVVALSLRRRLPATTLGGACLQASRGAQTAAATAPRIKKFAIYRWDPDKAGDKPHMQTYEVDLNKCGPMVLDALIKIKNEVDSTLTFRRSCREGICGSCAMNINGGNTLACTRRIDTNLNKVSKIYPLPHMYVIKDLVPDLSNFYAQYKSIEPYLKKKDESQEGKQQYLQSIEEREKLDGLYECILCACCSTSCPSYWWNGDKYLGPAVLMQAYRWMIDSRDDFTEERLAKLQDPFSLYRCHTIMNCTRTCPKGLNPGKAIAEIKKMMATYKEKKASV
UniProt Q9NR31: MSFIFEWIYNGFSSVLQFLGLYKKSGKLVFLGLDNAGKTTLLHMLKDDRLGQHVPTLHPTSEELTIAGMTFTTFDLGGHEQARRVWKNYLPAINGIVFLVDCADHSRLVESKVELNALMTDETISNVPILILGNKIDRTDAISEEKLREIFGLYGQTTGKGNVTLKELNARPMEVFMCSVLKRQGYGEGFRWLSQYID
UniProt Q15050: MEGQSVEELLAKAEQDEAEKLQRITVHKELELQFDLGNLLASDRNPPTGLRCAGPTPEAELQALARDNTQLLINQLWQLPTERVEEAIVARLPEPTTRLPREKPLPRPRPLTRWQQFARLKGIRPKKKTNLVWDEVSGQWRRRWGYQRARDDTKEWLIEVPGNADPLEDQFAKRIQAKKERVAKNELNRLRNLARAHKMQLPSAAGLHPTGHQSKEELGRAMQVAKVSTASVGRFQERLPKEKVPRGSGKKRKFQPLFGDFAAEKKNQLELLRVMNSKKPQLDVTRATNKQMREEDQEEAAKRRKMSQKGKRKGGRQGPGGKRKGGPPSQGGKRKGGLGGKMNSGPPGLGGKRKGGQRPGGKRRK
UniProt O95486: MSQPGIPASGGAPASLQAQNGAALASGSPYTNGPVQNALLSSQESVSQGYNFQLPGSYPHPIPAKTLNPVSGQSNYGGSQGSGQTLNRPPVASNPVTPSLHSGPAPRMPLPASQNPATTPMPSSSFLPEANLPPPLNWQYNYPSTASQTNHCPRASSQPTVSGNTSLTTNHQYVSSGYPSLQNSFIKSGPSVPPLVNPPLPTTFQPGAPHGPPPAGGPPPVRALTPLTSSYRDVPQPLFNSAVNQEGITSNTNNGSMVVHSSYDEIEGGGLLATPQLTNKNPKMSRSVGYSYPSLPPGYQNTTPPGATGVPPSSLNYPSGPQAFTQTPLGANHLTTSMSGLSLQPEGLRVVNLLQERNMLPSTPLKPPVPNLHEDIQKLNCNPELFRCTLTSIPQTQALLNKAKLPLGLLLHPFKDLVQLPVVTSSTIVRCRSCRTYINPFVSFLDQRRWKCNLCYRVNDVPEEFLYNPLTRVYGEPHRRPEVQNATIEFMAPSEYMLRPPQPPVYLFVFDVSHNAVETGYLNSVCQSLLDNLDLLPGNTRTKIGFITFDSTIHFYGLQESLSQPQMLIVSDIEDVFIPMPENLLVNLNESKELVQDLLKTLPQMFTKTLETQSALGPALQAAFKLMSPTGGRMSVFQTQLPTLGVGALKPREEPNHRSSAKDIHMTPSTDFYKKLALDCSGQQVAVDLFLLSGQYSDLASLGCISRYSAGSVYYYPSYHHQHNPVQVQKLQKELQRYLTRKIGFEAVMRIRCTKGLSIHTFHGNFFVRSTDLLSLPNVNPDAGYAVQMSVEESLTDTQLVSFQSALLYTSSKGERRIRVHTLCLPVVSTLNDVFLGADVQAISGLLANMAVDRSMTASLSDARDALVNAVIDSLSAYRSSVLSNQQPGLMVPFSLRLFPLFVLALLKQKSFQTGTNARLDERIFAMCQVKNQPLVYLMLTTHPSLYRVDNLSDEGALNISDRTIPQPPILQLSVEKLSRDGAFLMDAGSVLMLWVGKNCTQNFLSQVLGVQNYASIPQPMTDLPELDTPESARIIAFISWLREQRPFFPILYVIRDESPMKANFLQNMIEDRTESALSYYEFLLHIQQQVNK
UniProt O00560: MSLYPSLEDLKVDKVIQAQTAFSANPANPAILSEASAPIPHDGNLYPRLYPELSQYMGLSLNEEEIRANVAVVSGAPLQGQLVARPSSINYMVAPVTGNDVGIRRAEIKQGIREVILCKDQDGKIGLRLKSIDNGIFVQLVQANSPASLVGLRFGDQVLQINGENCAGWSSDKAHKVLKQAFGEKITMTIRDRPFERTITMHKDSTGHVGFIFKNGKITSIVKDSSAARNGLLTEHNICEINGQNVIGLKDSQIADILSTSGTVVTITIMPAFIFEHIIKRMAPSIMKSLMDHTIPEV
UniProt Q5JTH9: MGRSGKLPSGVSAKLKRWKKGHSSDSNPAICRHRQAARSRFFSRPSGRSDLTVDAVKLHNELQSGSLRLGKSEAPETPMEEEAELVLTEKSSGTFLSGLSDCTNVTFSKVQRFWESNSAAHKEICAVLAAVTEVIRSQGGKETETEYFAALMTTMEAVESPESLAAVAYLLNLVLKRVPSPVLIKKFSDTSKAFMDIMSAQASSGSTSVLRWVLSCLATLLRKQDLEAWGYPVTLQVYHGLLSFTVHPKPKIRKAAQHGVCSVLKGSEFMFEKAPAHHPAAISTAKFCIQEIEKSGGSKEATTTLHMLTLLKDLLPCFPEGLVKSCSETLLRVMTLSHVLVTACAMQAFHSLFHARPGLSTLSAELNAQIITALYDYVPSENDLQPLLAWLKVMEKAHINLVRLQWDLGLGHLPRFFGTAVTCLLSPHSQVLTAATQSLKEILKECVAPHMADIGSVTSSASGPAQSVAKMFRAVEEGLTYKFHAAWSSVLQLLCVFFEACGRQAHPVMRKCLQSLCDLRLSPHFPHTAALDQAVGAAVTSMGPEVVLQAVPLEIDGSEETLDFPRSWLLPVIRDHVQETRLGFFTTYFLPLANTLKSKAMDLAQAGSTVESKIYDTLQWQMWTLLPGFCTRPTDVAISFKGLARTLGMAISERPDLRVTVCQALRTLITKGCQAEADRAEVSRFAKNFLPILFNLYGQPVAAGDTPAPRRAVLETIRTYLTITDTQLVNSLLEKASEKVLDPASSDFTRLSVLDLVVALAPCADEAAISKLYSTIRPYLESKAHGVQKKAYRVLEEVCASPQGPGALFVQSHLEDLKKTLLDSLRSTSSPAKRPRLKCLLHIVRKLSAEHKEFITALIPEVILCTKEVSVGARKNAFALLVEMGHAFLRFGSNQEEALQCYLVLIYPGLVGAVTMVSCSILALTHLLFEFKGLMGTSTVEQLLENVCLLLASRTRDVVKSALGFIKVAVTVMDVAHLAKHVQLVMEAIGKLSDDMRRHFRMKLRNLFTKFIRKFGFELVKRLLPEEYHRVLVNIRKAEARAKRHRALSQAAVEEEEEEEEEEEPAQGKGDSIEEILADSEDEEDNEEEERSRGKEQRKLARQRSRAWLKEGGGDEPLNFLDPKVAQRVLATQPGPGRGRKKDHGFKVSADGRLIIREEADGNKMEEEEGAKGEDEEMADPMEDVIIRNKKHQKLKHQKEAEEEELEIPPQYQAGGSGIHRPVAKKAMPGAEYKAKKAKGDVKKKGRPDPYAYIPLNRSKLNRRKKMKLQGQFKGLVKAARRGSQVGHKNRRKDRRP
UniProt Q96IZ7: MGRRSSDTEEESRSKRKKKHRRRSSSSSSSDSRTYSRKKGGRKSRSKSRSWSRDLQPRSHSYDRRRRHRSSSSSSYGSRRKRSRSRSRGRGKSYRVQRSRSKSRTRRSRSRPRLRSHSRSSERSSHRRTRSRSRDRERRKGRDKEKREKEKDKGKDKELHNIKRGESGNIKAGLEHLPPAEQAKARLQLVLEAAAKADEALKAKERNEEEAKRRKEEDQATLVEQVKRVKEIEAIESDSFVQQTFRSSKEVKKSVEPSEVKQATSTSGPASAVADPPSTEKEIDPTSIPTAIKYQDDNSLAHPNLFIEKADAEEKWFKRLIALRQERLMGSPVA

[1] = compound: C/C(=N\NC(=O)C1=CC(=CC=C1)S(=O)(=O)N2CCOCC2)/C3=C(C=CC(=C3)Cl)O
Method in brief: as §1

[2] = compound: C1=CC(=C(C=C1Cl)C2=NC3=NC=CN=C3C(=N2)NC4=CC=NC=C4)F
Method in brief: as §1

[3] = compound: C1=CC(=CC=C1C2=NC3=C(N2)C=C(C=C3)C(=O)N)OC4=CC=C(C=C4)Cl
Method in brief: as §1

[4] = compound: C1=CC2=C(C=CC(=C2)/C=C\3/C(=O)NC(=NCC4=CC=CS4)S3)N=C1
Method in brief: as §1

[5] = compound: C1=CC2=NC=CN=C2C=C1/C=C/3\C(=O)NC(=O)S3
Method in brief: as §1

[6] = compound: C1=CC=C(C=C1)C2=NC(=C(N2)C3=CC=NC=C3)C4=CC(=C(C=C4)Cl)O
Method in brief: as §1

[7] = compound: C1=CC=C2C(=C1)C3=NNC4=CC=CC(=C43)C2=O
Method in brief: as §1

[8] = compound: C1CCN(C1)C(=O)NC2=CC=CC(=C2)NC3=NC=C(C(=N3)NCCC4=CN=CN4)Br
Method in brief: as §1

[9] = compound: C1CN(CCC1(CC2=CC=C(C=C2)Cl)N)C3=NC=NC4=C3C=CN4
Method in brief: as §1

IRAK-1-4 Inhibitor I = compound: C1COCCN1CCN2C3=CC=CC=C3N=C2NC(=O)C4=CC(=CC=C4)[N+](=O)[O-] [IRAK-1-4 Inhibitor I]
Method in brief: as §1

ibrutinib = compound: C=CC(=O)N1CCC[C@@H](n2nc(-c3ccc(Oc4ccccc4)cc3)c3c(N)ncnc32)C1 [ibrutinib]
Method in brief: as §1

[10] = compound: CC(=O)c1cnc2ccc(-c3cc(Cl)c(O)c(Cl)c3)nc2c1N[C@H]1CC[C@H](CN(C)C)CC1
Method in brief: as §1

ralimetinib = compound: CC(C)(C)Cn1c(N)nc2ccc(-c3[nH]c(C(C)(C)C)nc3-c3ccc(F)cc3)nc21 [ralimetinib]
Method in brief: as §1

[11] = compound: CC(C)(O)CC(=O)NCCn1ccc2ncnc(Nc3ccc(Oc4cccc(C(F)(F)F)c4)c(Cl)c3)c21
Method in brief: as §1

[12] = compound: CC(C)C1=C2N=C(C=C(N2N=C1)NCC3=CC=CC=C3)NCCCCCCN
Method in brief: as §1

[13] = compound: CC(C)C[C@@H](C=O)NC(=O)[C@H](CC(C)C)NC(=O)[C@H](CC(C)C)NC(=O)OCc1ccccc1
Method in brief: as §1

pinometostat = compound: CC(C)N(C[C@H]1O[C@@H](n2cnc3c(N)ncnc32)[C@H](O)[C@@H]1O)[C@H]1C[C@@H](CCc2nc3cc(C(C)(C)C)ccc3[nH]2)C1 [pinometostat]
Method in brief: as §1

[14] = compound: CC1=C(C2=C(C=C1)C(=O)C3=CC=CC=C3N2CCCN)C
Method in brief: as §1

[15] = compound: CC1=C(C(CC(=O)N1)C2=CC=C(C=C2)C(F)(F)F)C(=O)NC3=C(C=C4C(=C3)C=NN4)F
Method in brief: as §1

Row | Target | log2 fold change (erlotinib) | log2 fold change [1] | log2 fold change [2] | log2 fold change [3] | log2 fold change [4] | log2 fold change [5] | log2 fold change [6] | log2 fold change [7] | log2 fold change [8] | log2 fold change [9] | log2 fold change (IRAK-1-4 Inhibitor I) | log2 fold change (ibrutinib) | log2 fold change [10] | log2 fold change (ralimetinib) | log2 fold change [11] | log2 fold change [12] | log2 fold change [13] | log2 fold change (pinometostat) | log2 fold change [14] | log2 fold change [15]
1 | SDHC (UniProt Q99643) | inactive: -0.017 | inactive: 0.033 | inactive: -0.015 | inactive: 0.033 | inactive: -0.013 | inactive: 0.17 | inactive: 0.104 | inactive: 0.102 | inactive: 0.008 | inactive: 0.02 | inactive: 0.095 | inactive: 0.004 | inactive: 0.025 | inactive: -0.055 | inactive: -0.185 | inactive: 0.012 | inactive: -0.286 | inactive: -0.086 | inactive: 0.108 | 
2 | SEC31A (UniProt O94979) | inactive: 0.049 | inactive: 0.023 | inactive: 0.006 | inactive: -0.025 | inactive: 0.094 | inactive: 0.016 | inactive: -0.045 | inactive: 0.023 | inactive: -0.06 | inactive: -0.025 | inactive: -0.076 | inactive: -0.11 | inactive: 0.005 | inactive: 0.028 | inactive: -0.054 | inactive: -0.008 | inactive: 0.033 | inactive: 0.071 | inactive: 0.095 | 
3 | SAFB2 (UniProt Q14151) | inactive: 0.015 | inactive: -0.135 | inactive: -0.294 | inactive: 0.071 | inactive: -0.148 | inactive: 0.049 | inactive: 0.014 | inactive: -0.015 | inactive: -0.037 | inactive: -0.041 | inactive: -0.065 | inactive: -0.012 | inactive: 0.026 | inactive: 0.037 | inactive: 0.165 | inactive: 0.042 | inactive: 0.049 | inactive: 0.05 | inactive: -0.074 | 
4 | SEC23IP (UniProt Q9Y6Y8) | inactive: 0.03 | inactive: 0.022 | inactive: -0.013 | inactive: -0.037 | inactive: 0.028 | inactive: 0.229 | inactive: -0.023 | inactive: -0.027 | inactive: -0.008 | inactive: -0.061 | inactive: -0.007 | inactive: -0.023 | inactive: -0.048 | inactive: -0.004 | inactive: -0.119 | active: -0.252 | inactive: 0.006 | inactive: 0.032 | inactive: -0.011 | 
5 | RRP9 (UniProt O43818) | inactive: 0.018 | inactive: -0.04 | inactive: -0.099 | inactive: -0.004 | inactive: -0.042 | inactive: 0.03 | inactive: -0.114 | inactive: -0.085 | inactive: -0.081 | inactive: -0.016 | inactive: -0.043 | inactive: 0.017 | inactive: -0.062 | inactive: 0.014 | inactive: 0.133 | inactive: -0.04 | inactive: -0.002 | inactive: 0.01 | active: -0.432 | 
6 | RTN4 isoform 2 (UniProt Q9NQC3) | inactive: 0.075 | inactive: -0.042 | inactive: -0.03 | inactive: 0.032 | inactive: 0.026 | inactive: 0.021 | inactive: -0.026 | inactive: -0.025 | inactive: 0.041 | inactive: 0.067 | inactive: 0.118 | inactive: -0.019 | inactive: 0.054 | inactive: -0.111 | inactive: -0.071 | inactive: -0.097 | inactive: -0.028 | inactive: -0.061 | inactive: -0.068 | 
7 | SART3, A0A499FI31 | inactive: -0.034 | inactive: 0.058 | inactive: 0.102 | inactive: 0.032 | inactive: 0.032 | inactive: 0.084 | inactive: -0.004 | inactive: -0.045 | inactive: -0.078 | inactive: -0.014 | inactive: -0.021 | inactive: -0.017 | inactive: 0.062 | inactive: 0.002 | inactive: -0.033 | active: -0.379 | inactive: -0.051 | inactive: -0.025 | active: -0.377 | 
8 | RTN4IP1 (UniProt Q8WWV3) | inactive: 0.016 | inactive: 0 | inactive: 0.041 | inactive: 0.066 | inactive: 0.048 | inactive: -0.08 | inactive: 0.014 | inactive: 0.027 | inactive: -0.064 | inactive: 0.074 | inactive: -0.036 | inactive: 0.214 | inactive: -0.326 | inactive: 0.034 | inactive: -0.046 | inactive: 0.063 | inactive: -0.009 | inactive: 0.02 | inactive: 0.14 | 
9 | RUFY1 (UniProt Q96T51) | inactive: 0.01 | inactive: 0.094 | inactive: -0.046 | inactive: -0.018 | inactive: 0.022 | inactive: 0.034 | inactive: -0.027 | inactive: 0 | inactive: 0.031 | inactive: -0.084 | inactive: -0.019 | inactive: -0.002 | inactive: 0.101 | inactive: 0.034 | inactive: -0.092 | inactive: -0.182 | inactive: 0.011 | inactive: 0.083 | inactive: -0.014 | 
10 | SDHB (UniProt P21912) | inactive: -0.025 | inactive: -0.033 | inactive: -0.015 | inactive: -0.012 | inactive: -0.044 | inactive: 0.033 | inactive: 0.013 | inactive: -0.016 | inactive: 0.035 | inactive: 0.037 | inactive: 0.066 | inactive: 0.022 | inactive: 0.017 | inactive: -0.037 | inactive: -0.025 | inactive: 0.068 | inactive: 0.031 | inactive: -0.026 | inactive: -0.049 | inactive: 0.009
11 | SAR1A (UniProt Q9NR31) | inactive: 0.019 | inactive: 0.069 | inactive: 0.134 | inactive: -0.044 | inactive: -0.112 | inactive: -0.002 | inactive: 0.116 | inactive: 0.022 | inactive: 0.027 | inactive: 0.018 | inactive: 0.042 | inactive: -0.023 | inactive: 0.069 | inactive: 0.014 | inactive: -0.093 | inactive: 0.051 | inactive: -0.018 | inactive: -0.036 | inactive: 0.085 | inactive: -0.092
12 | RRS1 (UniProt Q15050) | inactive: -0.099 | inactive: -0.205 | inactive: -0.536 | inactive: -0.003 | inactive: -0.095 | inactive: 0.004 | inactive: -0.18 | inactive: -0.018 | inactive: 0.162 | inactive: -0.219 | inactive: -0.084 | inactive: 0.04 | inactive: 0.217 | inactive: 0.118 | inactive: 0.229 | inactive: 0.312 | inactive: 0.067 | inactive: 0.297 | active: -1 | 
13 | SEC24A (UniProt O95486) | inactive: 0.084 | inactive: 0.097 | inactive: 0.031 | inactive: -0.018 | inactive: 0.033 | inactive: -0.022 | inactive: 0.036 | inactive: 0.022 | inactive: -0.026 | inactive: 0.011 | inactive: -0.038 | inactive: -0.017 | inactive: -0.013 | inactive: 0.018 | inactive: -0.066 | inactive: -0.057 | inactive: -0.005 | inactive: 0.005 | inactive: 0.019 | 
14 | SDCBP (UniProt O00560) | inactive: -0.048 | inactive: -0.1 | inactive: -0.058 | inactive: 0.047 | inactive: -0.036 | inactive: -0.008 | inactive: 0.034 | inactive: 0.002 | inactive: -0.021 | inactive: -0.045 | inactive: 0.021 | inactive: 0.139 | inactive: -0.02 | inactive: -0.036 | inactive: -0.064 | active: -0.671 | inactive: 0.181 | inactive: 0.057 | inactive: -0.007 | 
15 | RRP12 (UniProt Q5JTH9) | inactive: 0.074 | inactive: -0.3 | inactive: -0.172 | inactive: 0.028 | inactive: -0.04 | inactive: 0.038 | inactive: 0.166 | inactive: 0.205 | inactive: 0.079 | inactive: 0.054 | inactive: -0.018 | inactive: -0.1 | inactive: 0.201 | inactive: 0.331 | inactive: 0.006 | inactive: 0.272 | inactive: 0.243 | inactive: 0.315 | inactive: -0.107 | 
16 | SEC23A (UniProt Q15436) | inactive: 0.026 | inactive: 0.1 | inactive: 0.022 | inactive: -0.036 | inactive: -0.024 | inactive: 0.021 | inactive: 0.005 | inactive: -0.018 | inactive: 0.019 | inactive: -0.019 | inactive: 0.06 | inactive: 0 | inactive: 0.077 | inactive: 0.026 | inactive: -0.123 | inactive: -0.014 | inactive: -0.006 | inactive: -0.004 | inactive: 0.121 | 
17 | RSRC1 (UniProt Q96IZ7) | inactive: 0 | inactive: 0.135 | inactive: -0.148 | inactive: 0.071 | inactive: -0.033 | inactive: -0.057 | inactive: -0.026 | inactive: -0.073 | inactive: 0.016 | inactive: -0.1 | inactive: -0.062 | inactive: 0.034 | inactive: -0.178 | inactive: -0.01 | inactive: 0.056 | inactive: -0.071 | inactive: 0.009 | inactive: -0.017 | inactive: 0.047 | 

Reformatted with tabs: part of the list above
Row	Target	log2 fold change (erlotinib)	log2 fold change [1]	log2 fold change [2]	log2 fold change [3]	log2 fold change [4]	log2 fold change [5]	log2 fold change [6]	log2 fold change [7]	log2 fold change [8]	log2 fold change [9]	log2 fold change (IRAK-1-4 Inhibitor I)	log2 fold change (ibrutinib)	log2 fold change [10]	log2 fold change (ralimetinib)	log2 fold change [11]	log2 fold change [12]	log2 fold change [13]	log2 fold change (pinometostat)	log2 fold change [14]	log2 fold change [15]
10	SDHB (UniProt P21912)	inactive: -0.025	inactive: -0.033	inactive: -0.015	inactive: -0.012	inactive: -0.044	inactive: 0.033	inactive: 0.013	inactive: -0.016	inactive: 0.035	inactive: 0.037	inactive: 0.066	inactive: 0.022	inactive: 0.017	inactive: -0.037	inactive: -0.025	inactive: 0.068	inactive: 0.031	inactive: -0.026	inactive: -0.049	inactive: 0.009
11	SAR1A (UniProt Q9NR31)	inactive: 0.019	inactive: 0.069	inactive: 0.134	inactive: -0.044	inactive: -0.112	inactive: -0.002	inactive: 0.116	inactive: 0.022	inactive: 0.027	inactive: 0.018	inactive: 0.042	inactive: -0.023	inactive: 0.069	inactive: 0.014	inactive: -0.093	inactive: 0.051	inactive: -0.018	inactive: -0.036	inactive: 0.085	inactive: -0.092
12	RRS1 (UniProt Q15050)	inactive: -0.099	inactive: -0.205	inactive: -0.536	inactive: -0.003	inactive: -0.095	inactive: 0.004	inactive: -0.18	inactive: -0.018	inactive: 0.162	inactive: -0.219	inactive: -0.084	inactive: 0.04	inactive: 0.217	inactive: 0.118	inactive: 0.229	inactive: 0.312	inactive: 0.067	inactive: 0.297	active: -1	

— the supplement of paper PMC10849652
